Reference: PubChem BioAssay AID743121 (NCATS, 2013)
Aim: 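Knock-downs that sensitise breast cancer cells to camptothecin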 (primary screen). System: MDA-MB-231 cells, a human breast cancer line. Knock-down reagent: single siRNA against human genes, 20 nM siRNA (0.8 pmol per well). Duration: 120 h (drug added 48 h after transfection, read 72 h later). Treatment: camptothecin 20 nM (about EC30) for 72 h; vehicle 0.1% DMSO in parallel plates. Detection: 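CellTiter-Glo ATP signal, scaled to control siRNA as percent viability; sensitisation given as log2 of untreated divided by camptothecin-treated viability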. Scale: log2 vehicle/camptothecin viability: higher = stronger sensitisation to camptothecin; viability with camptothecin: higher = more viable cells. Units: viability with camptothecin in % of control. Active means: 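Active genes have an RSA gene-level p-value below 0.001, computed from the ratios of their separate siRNAs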.
This is one part, drawn at random, of about 26,000 reagents. In the full data, 167 (0.63%) were called active. 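Calls are per gene from RSA p-values that are not deposited; an individual active-marked siRNA can sensitise only weakly.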 Unmarked entries are inactive. Reagents against one gene are numbered here. Not all columns of the deposit are shown.

Against TTBK1 #1, the entry reads log2 vehicle/camptothecin viability -0.221; viability with camptothecin 79.1.
Against TTBK1 #2 the deposit lists log2 vehicle/camptothecin viability 0.0844; viability with camptothecin 74.1.
For TTBK1 #3 the deposit lists log2 vehicle/camptothecin viability -0.539; viability with camptothecin 71.7.
Against TTBK1 #4, the entry reads log2 vehicle/camptothecin viability -0.196; viability with camptothecin 110.
Silencing of CASP5 #1 came out at: log2 vehicle/camptothecin viability -0.0107; viability with camptothecin 61.3.
Silencing of CASP5 #2 resulted in: log2 vehicle/camptothecin viability 0.0226; viability with camptothecin 87.
CASP5 #3 scored log2 vehicle/camptothecin viability -0.449; viability with camptothecin 93.8.
Knock-down of CASP5 #4 gave: log2 vehicle/camptothecin viability 0.177; viability with camptothecin 61.1.
Against EPRS1 #1, the entry reads log2 vehicle/camptothecin viability -0.399; viability with camptothecin 84.9.
Against EPRS1 #2 the deposit lists log2 vehicle/camptothecin viability -0.444; viability with camptothecin 79.2.
Knock-down of EPRS1 #3 resulted in: log2 vehicle/camptothecin viability -0.212; viability with camptothecin 41.4.
TNIK #1 scored log2 vehicle/camptothecin viability -0.0437; viability with camptothecin 97.2.
After knock-down of TNIK #2, the screen gave log2 vehicle/camptothecin viability 0.124; viability with camptothecin 29.8.
TNIK #3 gave log2 vehicle/camptothecin viability -0.712; viability with camptothecin 73.8.
After knock-down of TNIK #4, the screen gave log2 vehicle/camptothecin viability -0.193; viability with camptothecin 90.5.
Silencing of AMELX #1 gave: log2 vehicle/camptothecin viability -0.215; viability with camptothecin 96.6.
With knock-down of AMELX #2, the record shows log2 vehicle/camptothecin viability 0.229; viability with camptothecin 88.2.
AMELX #3 showed log2 vehicle/camptothecin viability -0.437; viability with camptothecin 94.9.
AMELX #4 showed log2 vehicle/camptothecin viability -0.438; viability with camptothecin 75.2.
With knock-down of COL9A2 #1, the screen gave log2 vehicle/camptothecin viability -0.111; viability with camptothecin 68.6.
Against COL9A2 #2 the deposit lists log2 vehicle/camptothecin viability 0.06; viability with camptothecin 99.7.
After knock-down of COL9A2 #3, the record shows log2 vehicle/camptothecin viability 0.693; viability with camptothecin 65.6.
With knock-down of COL9A2 #4, the screen gave log2 vehicle/camptothecin viability -0.314; viability with camptothecin 67.4.
For LATS2 #1, the entry reads log2 vehicle/camptothecin viability -0.394; viability with camptothecin 80.
After knock-down of LATS2 #2, the record shows log2 vehicle/camptothecin viability 0.204; viability with camptothecin 62.8.
After knock-down of LATS2 #3, the record shows log2 vehicle/camptothecin viability -0.192; viability with camptothecin 77.2.
Silencing of LATS2 #4 gave: log2 vehicle/camptothecin viability -0.214; viability with camptothecin 106.
With knock-down of PRAM1 #1, the record shows log2 vehicle/camptothecin viability 0.232; viability with camptothecin 84.7.
With knock-down of PRAM1 #2, the screen gave log2 vehicle/camptothecin viability -0.193; viability with camptothecin 74.5.
Knock-down of PRAM1 #3 resulted in: log2 vehicle/camptothecin viability -0.129; viability with camptothecin 66.8.
PRAM1 #4 showed log2 vehicle/camptothecin viability 0.09; viability with camptothecin 76.6.
With knock-down of AQP3 #1, the screen gave log2 vehicle/camptothecin viability -0.22; viability with camptothecin 52.8.
Against AQP3 #2, the values are log2 vehicle/camptothecin viability 0.00406; viability with camptothecin 87.5.
Silencing of AQP3 #3 resulted in: log2 vehicle/camptothecin viability -0.527; viability with camptothecin 15.9.
For AQP3 #4 the deposit lists log2 vehicle/camptothecin viability -0.115; viability with camptothecin 65.7.

Entries listed so far whose target name starts with L or l (4):
LATS2 #1 | log2 vehicle/camptothecin viability: -0.394; viability with camptothecin: 80
LATS2 #2 | log2 vehicle/camptothecin viability: 0.204; viability with camptothecin: 62.8
LATS2 #3 | log2 vehicle/camptothecin viability: -0.192; viability with camptothecin: 77.2
LATS2 #4 | log2 vehicle/camptothecin viability: -0.214; viability with camptothecin: 106
